Among the data in article PMC10907699 are binding values, retold here.

These are yes or no findings as the source states them, for the method shown. Binding seen in cells or lysates may run through a third protein. Some entries that bind do so weakly or less than the wild type. Sequences can lack the tags named with a protein.

The assay deals with T1, FLAG-M1-tagged mouse AGR2 (mouse) (UniProt O88312).
T1 sequence: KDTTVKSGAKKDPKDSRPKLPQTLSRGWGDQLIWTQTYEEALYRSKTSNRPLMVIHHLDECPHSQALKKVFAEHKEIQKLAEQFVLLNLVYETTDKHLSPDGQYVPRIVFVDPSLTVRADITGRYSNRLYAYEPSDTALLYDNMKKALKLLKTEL
The experiment in a line: co-IP; wild-type CHO-K1 cells over-expressing full-length IRE1β and FLAG-M1 AGR2; lysis with 20 mM NEM and 10 mM CaCl2; anti-FLAG-M1 affinity gel; eluates run reduced or non-reduced.

B1: full-length mouse IRE1β (protein, UniProt Q9Z2E3 34-911)
chain: VRPESLLFVSTLDGSLHALNKQTGDLKWTVKDDPIIQGPMYVTEMAFLSDPADGSLYVLGTQKQQGLMKLPFTIPELVHASPCRSSDGVFYTGRKQDAWFVVDPESGETQMTLTTEGLSTPQLFIGRTQYTVSMHDLRTPALRWNTTYRRYSAPLLNGSPGKYMSHLTSCGMGLLLTVDPGSGIVLWTQDLGVPVTGIYTWHQDGLHQLPHLTLARDTLHFLVLRWGHIRLPASSYQDTATQFSSLDTQLLMTLYVGKEEAGFYVSKALVHAGVALVPRGLTLAPMDGPTTDEVTLQVSGEREGSPSTAVRYPSGSVALPSQWLLIGYHEPPPVLHTTMLRVHPIPGKVSAETRASEDLHAPPVFFELLNLRREDPELHPEEKASDSYPGLGSQDLLAATFTAILLGAWVLYLMRQQQQSPSAPAGPPDLSQDAQGQLSRDILQDQRRFQSPSEPAQPPHDPEAGQPTVVGKISFNPKDVLGRGAGGTFVFRGQFEGRAVAVKRLLRECFGLVRREVQLLQESDRHPNVLRYFCTEHGPQFHYIALELCQASLQEYVESPDLDRWGLEPTTVLQQMMSGLAHLHSLHIVHRDLKPANILMAGPDSQGQGRVVISDFGLCKKLPVGRCSFSLHSGIPGTEGWMAPELLQLPPDSPTSAVDIFSAGCVFYYVLSGGSHPFGESLYRQANILSGDPCLAQLQEETHDKVVALDLVRAMLSLLPQDRPSAGWVLAHPLFWSRAKELQFFQDVSDWLEKEPDQGPLVSALEAGSYKVVREDWHKHISAPLQADLKRFRSYKGTSVRDLLRAMRNKKHHYRELPAEVRQTLGQLPAGFIQYFTQRFPRLLLHTHRAMRTCASESLFLPYYPPALEARRPDATKS
B1: the binding entry is reported as “binds”.
